PubChem BioAssay AID720703, Peter MacCallum Cancer Centre, 2013

- Assay: 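Kinase knock-down screen for links between AT1R and EGFR signalling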 (primary screen)
- Cell system: immortalised, SV40-transformed mammary epithelial cells from human, with stable expression of tagged AT1R
- Knock-down reagent: siRNA pool against human genes, 40 nM siRNA pool per well
- Duration: 72 h from transfection to lysis and read-out
- Challenge: angiotensin II stimulation (dose and duration not given); EGFR inhibitor AG1478 also listed
- Detection: 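ERK1/2 phosphorylation corrected for confluency, given as a robust z-score, mean over two replicate plates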
- Scale: phospho-ERK z-score: higher = more ERK phosphorylation after angiotensin II, relative to plate
- Hit rule: 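Pools were ordered by robust z-score and 50 top-ranked pools, whether they raised or lowered the signal, were chosen for secondary testing; no numeric threshold was reported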
- Meaning of the calls: active = picked for secondary screen; inactive = not picked
Shown is one part, drawn at random, of 714 reagents. Over the whole deposit, 50 (7%) were called active. 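Chosen pools sit at both extremes, so both low and high scores count as candidates; some pools appear more than once.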 Reagents against one gene are numbered here.

| Target gene | reagent | phospho-ERK z-score, replicate mean | activity call |
| --- | --- | --- | --- |
| SRMS | 1 | 0.49 | inactive |
| RIPK2 | 1 | -0.4 | inactive |
| MARK2 | 1 | -0.03 | inactive |
| CDKL1 | 1 | 0.21 | inactive |
| NPR2 | 1 | -0.2 | inactive |
| UCKL1 | 1 | -0.55 | inactive |
| MASTL | 1 | 1.58 | inactive |
| ALPK2 | 1 | 0.22 | inactive |
| TRIB1 | 1 | 1.05 | inactive |
| GUK1 | 1 | 0.05 | inactive |
| PDK2 | 1 | 0.2 | inactive |
| PIP4K2A | 1 | 0.68 | inactive |
| RPS6KA3 | 1 | 0.54 | inactive |
| NEK3 | 1 | 2.71 | inactive |
| STK17B | 1 | 0.35 | inactive |
| ERBB3 | 1 | -0.34 | inactive |
| STK32B | 1 | -0.69 | inactive |
| CLK4 | 1 | -0.36 | inactive |
| TBK1 | 1 | 0.18 | inactive |
| CDC42BPA | 1 | 1.46 | inactive |
| CAMK2A | 1 | -0.22 | inactive |
| NUAK2 | 1 | 2.52 | inactive |
| PIP5K1B | 1 | 2.56 | active |
| PFKL | 1 | 0.52 | inactive |
| DSTYK | 1 | 0.52 | inactive |
| TAF1 | 1 | -0.12 | inactive |
| KCNH8 | 1 | -0.24 | inactive |
| SMG1 | 1 | 1.46 | inactive |
| AURKC | 1 | 0.66 | inactive |
| MAP3K4 | 1 | 0.32 | inactive |
| UCK1 | 1 | 0.16 | inactive |
| NEK5 | 1 | -0.68 | inactive |
| SGK2 | 1 | -0.14 | inactive |
| EPHA10 | 1 | 0.05 | inactive |
| NME7 | 1 | -0.29 | inactive |
| WNK3 | 1 | -0.22 | inactive |
| NME4 | 1 | 0.14 | inactive |
| CDK14 | 1 | 0.62 | inactive |
| ETNK1 | 1 | -0.71 | inactive |
| DCLK1 | 1 | -0.6 | inactive |
| MAPK6 | 1 | 0.86 | inactive |
| MAP2K6 | 1 | 0.61 | inactive |
| CAMK2N1 | 1 | 0.02 | inactive |
| GALK2 | 1 | -0.3 | inactive |
| EIF2AK3 | 1 | 0.23 | inactive |
| PRKAR2A | 1 | -0.72 | inactive |
| PAPSS1 | 1 | 0.46 | inactive |
| CDKN1A | 1 | -1.12 | inactive |
| IKBKG | 1 | 2.09 | inactive |
| CASK | 1 | -1.05 | inactive |
| TEK | 1 | -0.42 | inactive |
| PFKFB3 | 1 | -0.44 | inactive |
| CSNK1G3 | 1 | 0.22 | inactive |
| WEE1 | 1 | -0.27 | inactive |
| CDK13 | 1 | -0.91 | inactive |
| DCLK3 | 1 | 0.35 | inactive |
| PRKCA | 1 | 0.48 | inactive |
| STK16 | 1 | -1.46 | active |
| PFKM | 1 | -0.64 | inactive |
| PFKP | 1 | 1.34 | inactive |
| HIPK3 | 1 | 4.01 | active |
| STYK1 | 1 | -1.66 | active |
| CSNK1A1 | 1 | -1 | inactive |
| NEK1 | 1 | 1.55 | inactive |
| CDC42BPG | 1 | -0.52 | inactive |
| PIP5K1A | 1 | 0.82 | inactive |
| ILK | 1 | -0.82 | inactive |
| ILK | 2 | 0.9 | inactive |
| PRKG2 | 1 | -0.33 | inactive |
| FLT1 | 1 | 0.65 | inactive |
| DGKH | 1 | 4.97 | active |
| RPS6KA5 | 1 | 1.18 | inactive |
| AKT2 | 1 | 0.4 | inactive |
| TSSK4 | 1 | 1.32 | inactive |
| MTOR | 1 | 0.21 | inactive |
| CHEK1 | 1 | 1.27 | inactive |
| CSNK2B | 1 | 3.42 | active |
| PIM3 | 1 | -0.94 | inactive |
| PIP4K2B | 1 | 1.87 | inactive |
| PAK4 | 1 | 0.1 | inactive |
| PFKFB4 | 1 | -0.26 | inactive |
| SBK1 | 1 | 0.59 | inactive |
| AK5 | 1 | 0.08 | inactive |
| MAP3K14 | 1 | 0.03 | inactive |
| ADK | 1 | -0.16 | inactive |
| MPP2 | 1 | 0.09 | inactive |
| RELA | 1 | -1.04 | inactive |
| LMTK3 | 1 | 0.61 | inactive |
| NEK11 | 1 | 0.78 | inactive |
| TLK2 | 1 | 0.94 | inactive |
| RAF1 | 1 | 0.36 | inactive |
| FGFR1 | 1 | -0.22 | inactive |
| MYO3B | 1 | 2.36 | inactive |
| MAP3K9 | 1 | 1.38 | inactive |
| STK32C | 1 | 0.08 | inactive |
| ROCK2 | 1 | 0.23 | inactive |
| PASK | 1 | -0.07 | inactive |
| CDKL5 | 1 | -0.74 | inactive |
| TRPM6 | 1 | 0.65 | inactive |
| CDK19 | 1 | -0.36 | inactive |
| ULK4 | 1 | 0.3 | inactive |
| NLK | 1 | 1.67 | inactive |
| NME5 | 1 | -0.28 | inactive |
| PRKD2 | 1 | 1.39 | inactive |
| PDXK | 1 | -0.43 | inactive |
| BCKDK | 1 | 0.03 | inactive |
| GUCY2EP | 1 | 0.58 | inactive |
| ITK | 1 | 70.3 | inactive |
| CSNK1G2 | 1 | -0.84 | inactive |
| IKBKB | 1 | 1.57 | inactive |
| STK24 | 1 | 0.26 | inactive |
| MAP3K1 | 1 | 0.1 | inactive |
| DGKG | 1 | 0.05 | inactive |
| CAMK4 | 1 | 0.38 | inactive |
| MKNK2 | 1 | -0.24 | inactive |
| PIK3CA | 1 | -1.48 | active |
| MAP4K1 | 1 | -0.57 | inactive |
| YES1 | 1 | 1.24 | inactive |
| CAMK2B | 1 | 0.3 | inactive |
| CDK3 | 1 | -1.03 | inactive |
| CILK1 | 1 | 1.1 | inactive |
| PDGFRL | 1 | -0.56 | inactive |
| ULK3 | 1 | 0.25 | inactive |
| PRKCE | 1 | 0.84 | inactive |
| TESK1 | 1 | 3.78 | inactive |
| CDK5R1 | 1 | -1.5 | active |
| PTK2B | 1 | 0.38 | inactive |
| ACVR2A | 1 | -0.64 | inactive |
| RIPK3 | 1 | 1.58 | inactive |
| STK25 | 1 | -1.05 | inactive |
| NRK | 1 | 0.37 | inactive |
| RPS6KA6 | 1 | 0.03 | inactive |
| MAP3K7 | 1 | 0.96 | inactive |
| FLT3 | 1 | -4.88 | active |
| TAOK3 | 1 | -1.1 | active |
| CDK7 | 1 | -0.28 | inactive |
| ARAF | 1 | 0.83 | inactive |
| STK38 | 1 | -0.3 | inactive |
| KHK | 1 | 1.17 | inactive |
| PRKAR1A | 1 | 0.9 | inactive |

A stretch of the results above:
| Target gene | reagent | phospho-ERK z-score, replicate mean | activity call |
| --- | --- | --- | --- |
| CAMK2A | 1 | -0.22 | inactive |
| NUAK2 | 1 | 2.52 | inactive |
| PIP5K1B | 1 | 2.56 | active |
| PFKL | 1 | 0.52 | inactive |
| DSTYK | 1 | 0.52 | inactive |
| TAF1 | 1 | -0.12 | inactive |
| KCNH8 | 1 | -0.24 | inactive |
| SMG1 | 1 | 1.46 | inactive |
| AURKC | 1 | 0.66 | inactive |
| MAP3K4 | 1 | 0.32 | inactive |
| UCK1 | 1 | 0.16 | inactive |
| NEK5 | 1 | -0.68 | inactive |
| SGK2 | 1 | -0.14 | inactive |
| EPHA10 | 1 | 0.05 | inactive |
| NME7 | 1 | -0.29 | inactive |
| WNK3 | 1 | -0.22 | inactive |
| NME4 | 1 | 0.14 | inactive |
